# Source: the supplement of paper PMC5949888
# Most values lie at the floor of the assay. Slopes are relative: functional sequences can read slightly below zero.
# Tested on: Saccharomyces cerevisiae PS128 hsf1 delta, HSF1(1-493) fusion
# Test: growth estimate (transactivation domain function in HSF1 fusion, heat-shock survival) (a.u. (slope of normalised read count over time)); higher = stronger growth at 37°C, i.e. more transactivation activity
# Conditions: library: random library
row,Substance,growth estimate
1,YLCGLLVPWTARQERPAVWV,< -0.25
2,YLCKHG,-0.248
3,YLFTFPSGSR,-0.21
4,YLGKVRGWTRTSGHPSLPLG,< -0.25
5,YLIIPAR,< -0.25
6,YLLHSQTCIHLRTSDLTMRA,< -0.25
7,YLNVHLRARRYRCGHALLVE,< -0.25
8,YLRKLNYVVYLKTVSTQASN,< -0.25
9,YLTR,< -0.25
10,YLTSYSRP,< -0.25
11,YLVGV,< -0.25
12,YLVLSCRCSIRT,< -0.25
13,YMCVH,< -0.25
14,YMG,< -0.25
15,YMGIGYTSRQGRHNTGGGGS,< -0.25
16,YMGQ,< -0.25
17,YMPIRRAWSAVIITLLGEEG,< -0.25
18,YNGQFI,< -0.25
19,YNKHFRTFPTAR,< -0.25
20,YNLMIGPGRVYAPRNPV,< -0.25
21,YNMIR,< -0.25
22,YNRISDKGPMGRPTWSPEL,< -0.25
23,YNSGVGGPCSLLLHRSLEHS,< -0.25
24,YNSNS,< -0.25
25,YNVAGTIR,< -0.25
26,YNVS,< -0.25

row,Substance,growth estimate
1,YNWTIGTDEV,< -0.25
2,YPADSYTRLLMNPRE,< -0.25
3,YPCLEVLWVRCDSCAHTLAR,< -0.25
4,YPGEHVGPVPKEVKTPWLNW,< -0.25
5,YPHGGSKGGEGGTTIDQIRA,< -0.25
6,YPHPRQAHVGMQCTGCAEVH,< -0.25
7,YPILAEG,< -0.25
8,YPISR,< -0.25
9,YPLCIGAVRFQRNIRFRTGL,< -0.25
10,YPNAVIFSLRAAREPLPCVV,< -0.25
11,YPQTACQPRPM,< -0.25
12,YPSDSIARVPLVQDLAQLGA,< -0.25
13,YPYRHCECNPGDTGMICRCV,-0.156
14,YQAACK,< -0.25
15,YQANSGRMLNSG,< -0.25
16,YQDIRAER,< -0.25
17,YQDQPSNCWVDLQPGGQEIT,< -0.25
18,YQKDFSTRWERIRMGWDIPD,< -0.25
19,YQL,< -0.25
20,YQPVDHIIRSHGRR,< -0.25
21,YQTFSLRPEIRVRRPEDSIF,< -0.25
22,YRAIWAVL,< -0.25
23,YRDSPNDIIV,-0.218
24,YREIILRNCGIKRLSATSET,< -0.25
25,YREVFVSLLRGLQREGGYGS,< -0.25
26,YRFVRSMAAVNFKGSGDNWV,< -0.25

row,Substance,growth estimate
1,YRGNCRGASCRLMARSAPSS,< -0.25
2,YRGPCPLKQQAYPDRKAR,< -0.25
3,YRGSKFV,-0.246
4,YRGTE,< -0.25
5,YRGTKVVSRSITRR,< -0.25
6,YRHE,< -0.25
7,YRIGILAAVLAF,< -0.25
8,YRNYPDACLIVDKS,< -0.25
9,YRPCIDFIHRQTFVAQPAQR,< -0.25
10,YRPSPISCMVRVDLGAYRDN,< -0.25
11,YRPYSRSENS,< -0.25
12,YRQPWFVVR,< -0.25
13,YRQRRCF,< -0.25
14,YRQTG,< -0.25
15,YRQTYCVWESQRMGSLLLYV,< -0.25
16,YRRLRGSGITGFDLA,< -0.25
17,YRRQIE,< -0.25
18,YRRVPAHNGAA,< -0.25
19,YRSEISIERRSRHRTSIEPG,-0.231
20,YRSQWGRRCRAIPSFPMATV,< -0.25
21,YRSVVILEPRKMRRALPCLA,< -0.25
22,YRTNTQTTLRTLLHFNSSAI,< -0.25
23,YRTVAIVATKTGVLRIEDGE,< -0.25
24,YRVDCNNIVSAYLLAFLVFV,-0.241
25,YRVEKETTGCSGSRGARVLW,< -0.25
26,YRVICSYNASAVSRICSRHK,< -0.25

row,Substance,growth estimate
1,YRVLHASFT,< -0.25
2,YRVTR,< -0.25
3,YRWVHPQWGPSRDQPNRCSA,-0.243
4,YSAFTRRPCTCHHSSSRRSD,< -0.25
5,YSANLLRR,< -0.25
6,YSASGRMM,< -0.25
7,YSDGCAEARLQNAFPTDIDP,3.24
8,YSDWIEVRD,< -0.25
9,YSE,< -0.25
10,YSGCSGHMTMISSLLGCVRT,< -0.25
11,YSIC,< -0.25
12,YSILHTGE,< -0.25
13,YSKLEIGIMYCSRSQIDPVK,< -0.25
14,YSLKFAPIAERVKGGFSNRG,< -0.25
15,YSLKICNSGSLAFA,< -0.25
16,YSLRVKISMMRDMPIIV,< -0.25
17,YSLTADLRVETLCEACCGDV,< -0.25
18,YSMLGRSVIRLCAVLRSLIA,< -0.25
19,YSNAVEQSGSSSGCN,< -0.25
20,YSQGIRLAFIVRASRCPIAK,< -0.25
21,YSQKMENTSR,< -0.25
22,YSQRWCDD,< -0.25
23,YSQTGLVPCRRSLIDTR,< -0.25
24,YSRVCYSYKTLTRRRASPSA,< -0.25
25,YSSTMQSTH,< -0.25
26,YSTAGFWARAGQLSTHVLSV,< -0.25

row,Substance,growth estimate
1,YSTSIVQPYAALYCGIVPSA,< -0.25
2,YSVET,< -0.25
3,YSVRLQLLEASEGYKTST,< -0.25
4,YSYDA,< -0.25
5,YSYVRDLPPQLSTGWETRKY,< -0.25
6,YTDASVSIPLEHRAGGRGAI,< -0.25
7,YTE,< -0.25
8,YTFLQTRNYHRSYQFEVFIR,< -0.25
9,YTGRT,< -0.25
10,YTIY,< -0.25
11,YTLVLRHRRSLRTVPVLPPI,< -0.25
12,YTNRLSRSEQGRARPFRKQN,< -0.25
13,YTNTPMHGQIAFGRRSPGFW,< -0.25
14,YTNWQCIYDAQASTAQCLGR,< -0.25
15,YTRT,< -0.25
16,YTTAGLN,< -0.25
17,YTYCIGGR,< -0.25
18,YVAPL,< -0.25
19,YVCPTLN,< -0.25
20,YVGRFVQPRHSMPSNVLNLH,< -0.25
21,YVH,< -0.25
22,YVMTGSIVDKRSVSRDWANC,-0.25
23,YVRGTDLSMALLIELNNWGL,< -0.25
24,YVRVQVYRASKCETLYQPF,< -0.25
25,YVRW,< -0.25
26,YVSACLRQATNFD,< -0.25

# Part of the list above in another layout:
row | Substance | growth estimate
6 | YLLHSQTCIHLRTSDLTMRA | < -0.25
7 | YLNVHLRARRYRCGHALLVE | < -0.25
12 | YLVLSCRCSIRT | < -0.25
16 | YMGQ | < -0.25
18 | YNGQFI | < -0.25
19 | YNKHFRTFPTAR | < -0.25
1 | YNWTIGTDEV | < -0.25
2 | YPADSYTRLLMNPRE | < -0.25
4 | YPGEHVGPVPKEVKTPWLNW | < -0.25
6 | YPHPRQAHVGMQCTGCAEVH | < -0.25
9 | YPLCIGAVRFQRNIRFRTGL | < -0.25
11 | YPQTACQPRPM | < -0.25
12 | YPSDSIARVPLVQDLAQLGA | < -0.25
16 | YQDIRAER | < -0.25
21 | YQTFSLRPEIRVRRPEDSIF | < -0.25
23 | YRDSPNDIIV | -0.218
25 | YREVFVSLLRGLQREGGYGS | < -0.25
26 | YRFVRSMAAVNFKGSGDNWV | < -0.25
12 | YRQPWFVVR | < -0.25
19 | YRSEISIERRSRHRTSIEPG | -0.231
23 | YRTVAIVATKTGVLRIEDGE | < -0.25
26 | YRVICSYNASAVSRICSRHK | < -0.25
1 | YRVLHASFT | < -0.25
2 | YRVTR | < -0.25
4 | YSAFTRRPCTCHHSSSRRSD | < -0.25
5 | YSANLLRR | < -0.25
8 | YSDWIEVRD | < -0.25
10 | YSGCSGHMTMISSLLGCVRT | < -0.25
16 | YSLRVKISMMRDMPIIV | < -0.25
20 | YSQGIRLAFIVRASRCPIAK | < -0.25
24 | YSRVCYSYKTLTRRRASPSA | < -0.25
25 | YSSTMQSTH | < -0.25
3 | YSVRLQLLEASEGYKTST | < -0.25
4 | YSYDA | < -0.25
7 | YTE | < -0.25
14 | YTNWQCIYDAQASTAQCLGR | < -0.25
16 | YTTAGLN | < -0.25
18 | YVAPL | < -0.25
19 | YVCPTLN | < -0.25
20 | YVGRFVQPRHSMPSNVLNLH | < -0.25
24 | YVRVQVYRASKCETLYQPF | < -0.25

# Additional entries:

row,Substance,growth estimate
1,YVSADVLTKVLQRRVSVHCT,< -0.25
2,YVSPPRPPRESL,< -0.25
3,YVSRLRCICAGHGSEGYPVG,< -0.25
4,YVTEAVDPRRFPIRRNRTCN,< -0.25
5,YVTFLTHTRR,< -0.25
6,YVTRQFCIEVLPVARGFPRI,-0.0256
7,YVV,< -0.25
8,YVWAGASVNRAAVRVCSLWI,< -0.25
9,YVWRVRVFGRKPMVSTRDRR,< -0.25
10,YVYLAELHVPRSSKLVRRHL,< -0.25
11,YWLTRGVW,< -0.25
12,YWRDLMS,< -0.25
13,YWSCPT,< -0.25
14,YWSHSLVTCMRFITS,< -0.25
15,YWV,0.0262
16,YWWLRPDLSHGETYRMFYSS,< -0.25
17,YYANPILDRVRRFGYPHSRC,< -0.25
18,YYAP,< -0.25
19,YYLATTSPMT,-0.245
20,YYLGIQFQAVSRTVCNWRRQ,< -0.25
21,YYR,< -0.25
22,YYWSACRSLRPPAAQNAFRT,< -0.25
